Measurements from “University of Dundee, Small-Polar-MMV Screening Library” (2021), ChEMBL document CHEMBL3988442.

Sequences of proteins named here, by UniProt entry; tags and fusion partners are left off. Residues count along the entry.
UniProt P9WPC5, whole entry: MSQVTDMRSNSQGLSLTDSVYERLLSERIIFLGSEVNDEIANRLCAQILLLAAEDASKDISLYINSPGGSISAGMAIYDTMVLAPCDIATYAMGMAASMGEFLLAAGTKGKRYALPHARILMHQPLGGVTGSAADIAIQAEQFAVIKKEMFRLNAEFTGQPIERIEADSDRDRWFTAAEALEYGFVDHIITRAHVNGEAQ
UniProt P9WPC3, whole entry partner: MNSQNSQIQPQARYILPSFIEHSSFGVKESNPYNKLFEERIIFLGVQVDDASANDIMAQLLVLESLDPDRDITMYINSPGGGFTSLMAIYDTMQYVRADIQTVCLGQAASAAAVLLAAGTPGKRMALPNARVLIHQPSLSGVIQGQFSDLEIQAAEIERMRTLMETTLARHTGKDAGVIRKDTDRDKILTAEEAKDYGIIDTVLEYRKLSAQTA
UniProt Q4DA54, 1-478: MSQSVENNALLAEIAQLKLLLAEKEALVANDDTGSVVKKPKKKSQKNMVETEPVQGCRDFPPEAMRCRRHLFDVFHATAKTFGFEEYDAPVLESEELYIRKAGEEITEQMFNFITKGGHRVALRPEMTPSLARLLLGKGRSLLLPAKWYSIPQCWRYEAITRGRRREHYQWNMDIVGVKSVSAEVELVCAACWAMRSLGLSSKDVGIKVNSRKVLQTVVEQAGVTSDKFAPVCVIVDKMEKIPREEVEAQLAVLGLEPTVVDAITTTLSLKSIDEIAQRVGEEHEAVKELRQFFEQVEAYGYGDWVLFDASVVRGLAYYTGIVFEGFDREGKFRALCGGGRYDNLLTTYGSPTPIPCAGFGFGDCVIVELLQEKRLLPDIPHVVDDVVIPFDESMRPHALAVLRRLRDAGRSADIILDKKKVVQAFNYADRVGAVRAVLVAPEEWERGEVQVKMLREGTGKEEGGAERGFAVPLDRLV
UniProt P9WNZ1, whole entry: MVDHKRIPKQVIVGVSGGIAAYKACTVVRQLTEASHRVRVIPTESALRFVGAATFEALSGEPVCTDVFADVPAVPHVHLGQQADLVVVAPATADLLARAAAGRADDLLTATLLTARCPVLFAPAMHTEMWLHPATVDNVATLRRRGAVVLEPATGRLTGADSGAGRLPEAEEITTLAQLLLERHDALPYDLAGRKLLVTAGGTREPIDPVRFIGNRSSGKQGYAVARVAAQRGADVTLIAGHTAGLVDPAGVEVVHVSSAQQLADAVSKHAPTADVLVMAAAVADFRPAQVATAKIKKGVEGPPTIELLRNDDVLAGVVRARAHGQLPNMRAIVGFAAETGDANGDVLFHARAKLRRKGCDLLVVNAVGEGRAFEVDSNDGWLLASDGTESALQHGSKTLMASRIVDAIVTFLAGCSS

ClpP1P2: 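ClpP1P2, Mycobacterium tuberculosis (UniProt P9WPC5 and UniProt P9WPC3). Protease assay of ClpP1P2, read by the AMC dye that it sets free. Tested at 50 µM. Higher reads as stronger inhibition, judged from the few compounds that gave an IC50. Most other retested compounds had strongly negative values. About 69,000 compounds were tested under these conditions; 0.015% (about 10) showed 50% or more at least once.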
Toxoplasma: 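Assay of Toxoplasma gondii numbers, read through their beta-galactosidase reporter with a colour substrate. Compounds at 10 µM. The record gives no direction; the compounds picked for IC50 retests had high values, so higher reads as fewer parasites. About 67,000 compounds were tested under these conditions; 0.38% (about 260) showed 50% or more at least once.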
Leishmania in macrophages: 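Cell assay of Leishmania donovani living inside macrophages; the read-out is not stated. Concentration: 30 µM. Higher reads as stronger inhibition (inferred: compounds with an IC50 in retests scored well above the rest). About 69,000 compounds were tested under these conditions; 1.5% (about 1,000) showed 50% or more at least once.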
TcHisRS: 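Histidine-tRNA ligase, Trypanosoma cruzi CL Brener (UniProt Q4DA54). Enzyme assay of histidyl-tRNA synthetase; the read-out is not stated. Concentration: 30 µM. The record gives no direction; compounds that gave an IC50 in retests scored well above the rest, so higher reads as stronger inhibition. About 69,000 compounds were tested under these conditions; 0.045% (about 31) showed 50% or more at least once.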
CoaBC: 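Enzyme assay of CoaBC with a phosphate dye (Biomol Green) read at 650 nm. Target: Coenzyme A biosynthesis protein CoaBC, Mycobacterium tuberculosis (UniProt P9WNZ1). Tested at 30 µM. Higher reads as stronger inhibition, judged from the few compounds that gave an IC50. Most strong results did not repeat in a second test. About 67,000 compounds were tested under these conditions; 0.06% (about 40) showed 50% or more at least once.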

Results are given as percent effect.
The controls that fix the scale are not given in the record; negative values are as filed.
Compounds were drawn at random from those tested, without regard to their results.
A dash means the value is not listed here; it may have been measured.

{"compound": "CC(C)(C)c1ncc(C(=O)NCCNC(=O)c2ccco2)s1", "ClpP1P2": -36.35, "Toxoplasma": 6.941, "Leishmania in macrophages": 0.2653, "TcHisRS": 2.312, "CoaBC": 4.725}
{"compound": "CN1CCOCC12CCN(Cc1ccoc1)CC2.O=C(O)C(F)(F)F.O=C(O)C(F)(F)F", "Toxoplasma": 3.132, "Leishmania in macrophages": 10.68}
{"compound": "N#Cc1c(CN2CCCC2Cn2cncn2)cn2ccccc12", "stereo": "stereo not shown", "ClpP1P2": -16.59, "Toxoplasma": 13.32, "Leishmania in macrophages": 13.42, "TcHisRS": 7.292, "CoaBC": 7.135}
{"compound": "COc1cc(N2CC[C@H](O)[C@@H]2Cc2ccccc2)ncn1", "ClpP1P2": 19.35, "Toxoplasma": -7.353, "Leishmania in macrophages": 33.09, "TcHisRS": 7.563, "CoaBC": 1.42}
{"compound": "Cc1noc(C2CCN(C(=O)Nc3ccc(N(C)C)nc3)CC2)n1", "ClpP1P2": -45.65, "Toxoplasma": -31.69, "Leishmania in macrophages": 16.36, "TcHisRS": 11.18, "CoaBC": 4.859}
{"compound": "O=C(NCc1nncn1-c1ccccc1)C1CC(=O)N(CC2CC2)C1", "stereo": "stereo not shown", "ClpP1P2": 11.24, "Toxoplasma": 4.538, "Leishmania in macrophages": -2.128, "TcHisRS": 1.504, "CoaBC": 6.287}
{"compound": "CS(=O)(=O)N1CCN(Cc2ccc(F)cc2Br)CC1", "ClpP1P2": -0.119, "Toxoplasma": -20.56, "Leishmania in macrophages": 17.51, "TcHisRS": 5.202, "CoaBC": 7.196}
{"compound": "Cc1ccc(-c2nc(CN3CCCC3Cn3cncn3)cs2)o1", "stereo": "stereo not shown", "ClpP1P2": -21.2, "Toxoplasma": 12, "Leishmania in macrophages": 19.18, "TcHisRS": 20.57, "CoaBC": 1.312}
{"compound": "CC(C)Cn1cnc(S(=O)(=O)Nc2cccnc2-n2cccn2)c1", "ClpP1P2": 5.99, "Toxoplasma": 4.099, "Leishmania in macrophages": 10.06, "TcHisRS": 7.006}
{"compound": "O=C(c1ncncc1Cl)N1CCN(c2ccc(Cl)cc2)CC1", "ClpP1P2": 8.671, "Toxoplasma": -6.843, "Leishmania in macrophages": 14.99, "TcHisRS": 12.61, "CoaBC": 1.613}
{"compound": "O=C(O)CCc1cc2n(n1)CCN(Cc1ccc3[nH]ccc3c1)C2", "ClpP1P2": -16.24, "Toxoplasma": -28.06, "Leishmania in macrophages": 4.332, "TcHisRS": 6.533, "CoaBC": 1.568}
{"compound": "CC(C)NC(=O)NC[C@@]1(COc2cnccn2)C[C@@H](O)[C@@H](O)C1", "ClpP1P2": -4.881, "TcHisRS": 4.478, "CoaBC": 7.662}
{"compound": "CC(C)n1nc2c(cc1=O)CN(CCCN1CCCC1=O)CC2", "ClpP1P2": -35.59, "Toxoplasma": 23.45, "Leishmania in macrophages": 24.25, "TcHisRS": 11.92, "CoaBC": 2.445}
{"compound": "COc1ccc(C(=O)N2CCCC3(CCCC(=O)N3C)C2)cc1", "stereo": "stereo not shown", "ClpP1P2": 13.76, "Toxoplasma": -8.533, "Leishmania in macrophages": 14.63, "TcHisRS": 4.327, "CoaBC": 3.294}
{"compound": "CC(=O)Nc1ccc2nc(CN(C)Cc3snnc3C)ccc2c1", "ClpP1P2": -75.23, "Toxoplasma": 9.913, "Leishmania in macrophages": -11.35, "TcHisRS": 22, "CoaBC": 10.74}
{"compound": "[H][C@@]12C[C@H](O)CCN1C(=O)CN(CCOC)C2=O", "Toxoplasma": 15.37, "Leishmania in macrophages": 18.21}
{"compound": "OC1CCN(c2ccnc(NCCN3CCc4ccccc4C3)n2)C1", "stereo": "stereo not shown", "ClpP1P2": 9.546, "Toxoplasma": -7.659, "Leishmania in macrophages": 47, "TcHisRS": -1.22, "CoaBC": 5.696}
{"compound": "CCC(Oc1ccc(N(C)S(C)(=O)=O)cc1)C(N)=O", "stereo": "stereo not shown", "ClpP1P2": -3.516, "Toxoplasma": -2.3, "Leishmania in macrophages": 6.283, "TcHisRS": 3.191, "CoaBC": -2.008}
{"compound": "Cc1cc(=O)[nH]c(-n2nc(C3CC3)cc2N)n1", "ClpP1P2": 1.172, "Toxoplasma": 28.72, "Leishmania in macrophages": 77.1, "TcHisRS": 7.229, "CoaBC": -0.5089}
{"compound": "CN1C(=O)C2(CC(=O)Nc3c2cnn3C(C)(C)C)c2ccccc21", "stereo": "stereo not shown", "ClpP1P2": -21.52, "Toxoplasma": -5.789, "Leishmania in macrophages": -19.21, "TcHisRS": 7.453, "CoaBC": -0.8861}
{"compound": "CCN(Cc1ccoc1)C(C(N)=O)c1cccc(Br)c1", "stereo": "stereo not shown", "ClpP1P2": -5.628, "Toxoplasma": 0.4633, "Leishmania in macrophages": 23.25, "TcHisRS": 1.235, "CoaBC": 0.4914}
{"compound": "COc1ccc(F)cc1-c1ccccc1CC1(C(=O)O)CCOCC1", "ClpP1P2": -13.32, "Toxoplasma": -1.227, "Leishmania in macrophages": -18.67, "TcHisRS": 1.128, "CoaBC": -17.95}

Some entries from above, unchanged:

compound	ClpP1P2	Toxoplasma	Leishmania in macrophages	TcHisRS	CoaBC
COc1cc(N2CC[C@H](O)[C@@H]2Cc2ccccc2)ncn1	19.35%	-7.353%	33.09%	7.563%	1.42%
OC1CCN(c2ccnc(NCCN3CCc4ccccc4C3)n2)C1 (stereo not shown)	9.546%	-7.659%	47%	-1.22%	5.696%
CC(C)Cn1cnc(S(=O)(=O)Nc2cccnc2-n2cccn2)c1	5.99%	4.099%	10.06%	7.006%	-